Binding data for two molecules are collected here from PMC5706827.

Sequences of proteins named here, by UniProt entry; tags and fusion partners are left off.
UniProt O00425: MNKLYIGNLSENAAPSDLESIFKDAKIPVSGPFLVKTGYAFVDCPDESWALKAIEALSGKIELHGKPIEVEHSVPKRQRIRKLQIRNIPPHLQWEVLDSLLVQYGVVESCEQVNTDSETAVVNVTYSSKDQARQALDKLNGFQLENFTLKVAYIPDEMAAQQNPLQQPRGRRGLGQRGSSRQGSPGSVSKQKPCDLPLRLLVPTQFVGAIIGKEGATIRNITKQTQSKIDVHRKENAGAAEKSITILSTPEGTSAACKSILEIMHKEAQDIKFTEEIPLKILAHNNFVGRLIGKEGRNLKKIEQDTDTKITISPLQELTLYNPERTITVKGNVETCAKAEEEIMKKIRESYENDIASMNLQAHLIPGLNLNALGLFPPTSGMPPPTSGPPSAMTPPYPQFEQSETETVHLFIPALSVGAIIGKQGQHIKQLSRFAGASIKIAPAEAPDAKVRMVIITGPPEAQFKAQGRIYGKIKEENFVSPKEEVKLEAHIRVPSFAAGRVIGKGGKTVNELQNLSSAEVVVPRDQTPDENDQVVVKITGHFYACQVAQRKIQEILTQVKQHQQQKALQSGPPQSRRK

These are yes or no findings as the source states them, for the method shown. In cells and extracts the contact can be indirect. Here binding means that the protein was enriched with, or labelled near, the bait; the list need not be complete.

The target in this experiment is Flag-tagged IGF2BP3 (insulin-like growth factor 2 mRNA binding protein 3) (UniProt O00425). Description: affinity purification with mass spectrometry; Flag-tagged IGF2BP3 transfected into HEK293T cells, 48 h; lysates immunopurified with Flag affinity beads, eluted with Flag peptides; SDS-PAGE, silver stain, excised gel segments analysed by mass spectrometry.

B1: DHX57 (protein, UniProt Q6P158 1-1386)
chain: MSSSVRRKGKPGKGGGKGSSRGGRGGRSHASKSHGSGGGGGGGGGGGGGNRKASSRIWDDGDDFCIFSESRRPSRPSNSNISKGESRPKWKPKAKVPLQTLHMTSENQEKVKALLRDLQEQDADAGSERGLSGEEEDDEPDCCNDERYWPAGQEPSLVPDLDPLEYAGLASVEPYVPEFTVSPFAVQKLSRYGFNTERCQAVLRMCDGDVGASLEHLLTQCFSETFGERMKISEAVNQISLDECMEQRQEEAFALKSICGEKFIERIQNRVWTIGLELEYLTSRFRKSKPKESTKNVQENSLEICKFYLKGNCKFGSKCRFKHEVPPNQIVGRIERSVDDSHLNAIEDASFLYELEIRFSKDHKYPYQAPLVAFYSTNENLPLACRLHISEFLYDKALTFAETSEPVVYSLITLLEEESEIVKLLTNTHHKYSDPPVNFLPVPSRTRINNPACHKTVIPNNSFVSNQIPEVEKASESEESDEDDGPAPVIVENESYVNLKKKISKRYDWQAKSVHAENGKICKQFRMKQASRQFQSILQERQSLPAWEERETILNLLRKHQVVVISGMTGCGKTTQIPQFILDDSLNGPPEKVANIICTQPRRISAISVAERVAKERAERVGLTVGYQIRLESVKSSATRLLYCTTGVLLRRLEGDTALQGVSHIIVDEVHERTEESDFLLLVLKDIVSQRPGLQVILMSATLNAELFSDYFNSCPVITIPGRTFPVDQFFLEDAIAVTRYVLQDGSPYMRSMKQISKEKLKARRNRTAFEEVEEDLRLSLHLQDQDSVKDAVPDQQLDFKQLLARYKGVSKSVIKTMSIMDFEKVNLELIEALLEWIVDGKHSYPPGAILVFLPGLAEIKMLYEQLQSNSLFNNRRSNRCVIHPLHSSLSSEEQQAVFVKPPAGVTKIIISTNIAETSITIDDVVYVIDSGKMKEKRYDASKGMESLEDTFVSQANALQRKGRAGRVASGVCFHLFTSHHYNHQLLKQQLPEIQRVPLEQLCLRIKILEMFSAHNLQSVFSRLIEPPHTDSLRASKIRLRDLGALTPDERLTPLGYHLASLPVDVRIGKLMLFGSIFRCLDPALTIAASLAFKSPFVSPWDKKEEANQKKLEFAFANSDYLALLQAYKGWQLSTKEGVRASYNYCRQNFLSGRVLQEMASLKRQFTELLSDIGFAREGLRAREIEKRAQGGDGVLDATGEEANSNAENPKLISAMLCAALYPNVVQVKSPEGKFQKTSTGAVRMQPKSAELKFVTKNDGYVHIHPSSVNYQVRHFDSPYLLYHEKIKTSRVFIRDCSMVSVYPLVLFGGGQVNVQLQRGEFVVSLDDGWIRFVAASHQVAELVKELRCELDQLLQDKIKNPSIDLCTCPRGSRIISTIVKLVTTQ
Turning to B1, the binding result is on record as “binds”.

B2: HNRNPL (protein, UniProt P14866 1-589)
chain: MSRRLLPRAEKRRRRLEQRQQPDEQRRRSGAMVKMAAAGGGGGGGRYYGGGSEGGRAPKRLKTDNAGDQHGGGGGGGGGAGAAGGGGGGENYDDPHKTPASPVVHIRGLIDGVVEADLVEALQEFGPISYVVVMPKKRQALVEFEDVLGACNAVNYAADNQIYIAGHPAFVNYSTSQKISRPGDSDDSRSVNSVLLFTILNPIYSITTDVLYTICNPCGPVQRIVIFRKNGVQAMVEFDSVQSAQRAKASLNGADIYSGCCTLKIEYAKPTRLNVFKNDQDTWDYTNPNLSGQGDPGSNPNKRQRQPPLLGDHPAEYGGPHGGYHSHYHDEGYGPPPPHYEGRRMGPPVGGHRRGPSRYGPQYGHPPPPPPPPEYGPHADSPVLMVYGLDQSKMNCDRVFNVFCLYGNVEKVKFMKSKPGAAMVEMADGYAVDRAITHLNNNFMFGQKLNVCVSKQPAIMPGQSYGLEDGSCSYKDFSESRNNRFSTPEQAAKNRIQHPSNVLHFFNAPLEVTEENFFEICDELGVKRPSSVKVFSGKSERSSSGLLEWESKSDALETLGFLNHYQMKNPNGPYPYTLKLCFSTAQHAS
Take B2: the binding result is “binds”.
